Results taken from PubChem BioAssay AID1347076 (National Center for Advancing Translational Sciences (NCATS), 2019).
Among all 400,000 compounds or so, about 13,000 (3.2%) were called active. The shares of active, inactive and inconclusive entries below differ from those in the screen. Calls come from the whole dose curve; as a rule, active = well fitted cell-killing curve with a large enough effect; inconclusive = small, poorly fitted or top-dose-only effect, or effect the other way; inactive = flat fitted curve, though single readings scatter. Potencies of inconclusive entries are doubtful fits and often do not repeat.

Test: qHTS assay for MDR1-selective chemotherapeutics: Primary screen using the drug-selected MDR subline cells KB-V1; note: nearly all actives have a fitted effect of over 60% in size
Conditions: KB-V1 MDR cells viability, CellTiter-Glo, 72 h; activity change, negative = cytotoxicity: at 46.1 µM (top of the series)
Summary of the method: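 qHTS viability screen in drug-selected KB-V1 MDR cells: 72 h compound treatment at 37 degrees C, ATP luminescence end point.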
% is set by controls: 0 for no effect and ±100 for the full control effect; potency is the fitted concentration of half-maximal effect.

SMILES	Potency	activity change, negative = cytotoxicity
CCOc1cc(C(=O)OCC(=O)c2c(N)n(C)c(=O)n(C)c2=O)cc(OCC)c1OCC	active: 18.4 µM	–
O=C(O)C1CCN(c2nc(-c3ccccc3)nc3c2oc2ccccc23)CC1	inactive	–
Cn1nc(-c2ccccc2)c(COC(=O)c2cccc(Cl)c2)c1S(=O)(=O)c1ccccc1	inconclusive: 29.1 µM [cytotoxic, single point]	–
Cc1csc2nc(O)c(C(=O)NC3CCCCCC3)c(=O)n12	inconclusive: 29.1 µM [cytotoxic, single point]	–
c1ccc(Cn2ncc3c(Nc4ccccc4)ncnc32)cc1	inconclusive: 29.1 µM [cytotoxic, partial curve, poor fit]	–
CCOC(=O)/C=C1\CN(Cc2cc(OC)c(OC)c(OC)c2)S(=O)(=O)c2ccc(C(F)(F)F)cc21	inconclusive: 25.9 µM [cytotoxic, single point]	–
CCCCNc1nc(Oc2ccc(=O)n(-c3ccccc3)n2)nc(N(CC)CC)n1	inactive	–
COc1ccc(CNC(=O)CSc2nc(-c3ccccc3)cc(-c3cccs3)c2C#N)cc1	inactive	–
Cc1ccc(C(=O)N2CCN(S(=O)(=O)c3ccc(Br)cc3)CC2)o1	inconclusive: 4.61 µM [cytotoxic, partial curve]	–
O=C(Nc1ccccc1O)c1ccc(Cl)cc1	inactive	–
OC(CCc1ccncc1)COc1ccccc1 (stereo not given)	inconclusive: 29.1 µM [rising, single point]	–
CCCCCCc1cc2cc(C(=O)Nc3ccc(OC)cc3)c(=O)oc2cc1O	active: 8.2 µM	–
CCCOP(=O)(OCCC)C(Nc1ccc(C(C)C)cc1)c1ccc([N+](=O)[O-])cc1 (stereo not given)	active: 11.6 µM	–
COc1ccc2nc(N3CCN(C(=O)c4ccc([N+](=O)[O-])o4)CC3)sc2c1	inconclusive: 20.6 µM [cytotoxic, single point]	–
Cc1nc(N2CCN(c3ccccc3)CC2)nc2c1C(=O)CC(C)C2 (stereo not given)	inconclusive: 20.6 µM [cytotoxic, single point]	–
CC(C)CCOc1ccc(C(=O)NN2C(=O)NC3(CCCCC3)C2=O)cc1	inconclusive: 32.6 µM [rising, single point]	–
Cc1ccc(NC(=O)C2(C)CCN2Cc2csc3ccccc23)cc1 (stereo not given)	inconclusive: 20.6 µM [cytotoxic, single point]	–
CC(=O)c1cccc(NC(=O)c2cc(-c3ccco3)nc3ccccc23)c1	inconclusive: 13 µM [cytotoxic, partial curve, poor fit]	–
Cc1cc(NC(=O)CSCC(=O)Nc2ccccc2Oc2ccccc2)no1	active: 10.3 µM	–
CCOC(=O)C(NC(C)=O)(Nc1cccc(F)c1)C(F)(F)F (stereo not given)	inconclusive: 25.9 µM [rising, single point]	–
COc1ccc(C(=O)c2coc3c2C(=O)C(=O)c2ccccc2-3)cc1	inactive	–
CC(=O)Nc1ccc(NC(=O)c2c(C)nn(Cc3ccccc3Cl)c2C)cc1	inconclusive: 11.6 µM [cytotoxic, partial curve]	–
CC(=O)c1cccc(-n2c(=O)c3c4c(sc3n(CC(=O)Nc3ccccc3F)c2=O)CN(C(C)=O)CC4)c1	inconclusive: 29.1 µM [rising, single point]	–

In a second layout: entries from further up
CCCCNc1nc(Oc2ccc(=O)n(-c3ccccc3)n2)nc(N(CC)CC)n1
  Potency: inactive
COc1ccc(CNC(=O)CSc2nc(-c3ccccc3)cc(-c3cccs3)c2C#N)cc1
  Potency: inactive

Going on with the list.

SMILES	Potency	activity change, negative = cytotoxicity
O=C(CSc1nc2ccccc2c(=O)n1-c1ccc(F)cc1F)Nc1ccc2c(c1)CCC2	inactive	–
CCOc1ccc(NC(=S)NNc2ccnc3cc(Cl)ccc23)cc1	inconclusive: 3.66 µM [cytotoxic, full curve]	–
O=C(COc1ccc([N+](=O)[O-])cc1)N1CCC(c2nc3ccccc3s2)CC1	inconclusive: 20.6 µM [cytotoxic, single point]	–
CN1CCN(C(=O)c2cc([N+](=O)[O-])cc([N+](=O)[O-])c2)CC1	inconclusive: 1.84 µM [rising, full curve, poor fit]	–
Cc1ccc2ncccc2c1NC(=S)NC(=O)c1ccccc1	inconclusive: 18.4 µM [cytotoxic, partial curve]	–
COc1ccc(OC)c2[nH]c(=O)c(CCNC(=O)COc3ccccc3)cc12	active: 9.2 µM	–
CCOc1ccc(S(=O)(=O)N(C)C)cc1-c1nc2c(C(C)(C)C)nn(C)c2c(=O)[nH]1	inconclusive: 0.731 µM [cytotoxic, full curve]	–
O=C(O)/C=C/C(=O)NC1CC1	inconclusive: 16.4 µM [rising, single point]	–
COc1ccc(Sc2ccc(-c3nc4cnccn4c3NC3CCCCC3)cc2OC)cc1	inconclusive: 29.1 µM [cytotoxic, single point]	–
COc1ccc(/C=N/Nc2nonc2N)cc1	active: 20.6 µM	–
CCOc1cccc(CN2CCN(CCCc3ccccc3)C(CCO)C2)c1O (stereo not given)	inconclusive: 18.4 µM [rising, single point]	–
O=C(N/N=C/c1ccc(-c2cccc([N+](=O)[O-])c2)o1)[C@H]1C[C@@H]1c1ccccc1	inconclusive: 18.4 µM [cytotoxic, single point]	–
CC(C)(CC(=O)OCC(=O)Nc1ccccc1F)CC1=NS(=O)(=O)c2ccccc2N1	inactive	–
CCOc1ccc(NC(=O)CSc2nnc(C)n2CC)cc1	inconclusive: 29.1 µM [rising, single point]	–
Cc1ccsc1C(=O)NCCc1ccc(S(N)(=O)=O)cc1	–	inconclusive: 1.15%
Cc1ccc(C(=O)Nc2ccc(S(=O)(=O)N3CCc4ccccc43)cc2)o1	inconclusive: 8.2 µM [cytotoxic, partial curve, poor fit]	–
O=C(NCC1CCCO1)c1cc(-c2ccc(Cl)cc2Cl)on1 (stereo not given)	inactive	–
Cn1ncc2c(Nc3ccccc3Cl)nc(Cl)nc21	inactive	–
CC(C)c1cc(C(=O)N2CCCC(CCC(=O)N3CCN(c4ccccn4)CC3)C2)no1 (stereo not given)	inconclusive: 2.59 µM [cytotoxic, full curve]	–
COc1cc(-c2ccc(=O)[nH]n2)ccc1OC(F)F	active: 0.0517 µM	–
CCCCC(=O)N(C)c1c(CC)nc2c(OCCOc3ccc(F)cc3)cccn12	inactive	–
O=C(CN1CCCc2ccccc21)Nc1cccc(S(=O)(=O)N2CCCC2)c1	inconclusive: 29.1 µM [cytotoxic, single point]	–
